No constants are given. Whether binding was seen depends on the method and setting. Sequences can lack the tags named with a protein.
Target: T1, His6-Sumo tagged SepF_(ΔML,K125E/F131A) (Corynebacterium glutamicum) (UniProt Q8NNN6)
T1 sequence: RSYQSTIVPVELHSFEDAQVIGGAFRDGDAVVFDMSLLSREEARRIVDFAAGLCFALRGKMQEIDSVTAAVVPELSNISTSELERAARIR
Experiment: SPR; Biacore T200, 25 °C, 25 mM HEPES pH 8, 150 mM KCl, 0.1 mM EDTA; His6-Sumo SepF variants covalently immobilised on NTA chips (3000-4000 RU); FtsZCTD 1.56 to 400 µM injected; steady-state fit; apparent Kd; both purified

B1: FtsZCTD peptide (conserved C-terminal domain of C. glutamicum FtsZ, 10 residues) (peptide)
peptide: DDLDVPSFLQ
notes: C-terminal 10 residues of FtsZ (cg2366), Corynebacterium glutamicum; the printed residues D436, P438 and F440 place the peptide at 433-442; also called FtsZ C-terminal domain peptide; source: synthetic peptide, bought: Genosphere
B1 was tested, and the binding was “no binding (tested: 1.56 to 400 µM FtsZCTD)”.

Source: PMC7118173 (Nature Communications, 2020)
